For orientation: IC50 means the point on the concentration scale where inhibition reaches its midpoint. The term Ki denotes a dissociation constant, usually derived from enzyme kinetics or from competition with a known ligand. A higher Ki goes with weaker binding.

Sequences of proteins named here, by UniProt entry; tags and fusion partners are left off. A change or cut given only in a name is not applied to a line headed by its entry.
UniProt P06241, whole entry: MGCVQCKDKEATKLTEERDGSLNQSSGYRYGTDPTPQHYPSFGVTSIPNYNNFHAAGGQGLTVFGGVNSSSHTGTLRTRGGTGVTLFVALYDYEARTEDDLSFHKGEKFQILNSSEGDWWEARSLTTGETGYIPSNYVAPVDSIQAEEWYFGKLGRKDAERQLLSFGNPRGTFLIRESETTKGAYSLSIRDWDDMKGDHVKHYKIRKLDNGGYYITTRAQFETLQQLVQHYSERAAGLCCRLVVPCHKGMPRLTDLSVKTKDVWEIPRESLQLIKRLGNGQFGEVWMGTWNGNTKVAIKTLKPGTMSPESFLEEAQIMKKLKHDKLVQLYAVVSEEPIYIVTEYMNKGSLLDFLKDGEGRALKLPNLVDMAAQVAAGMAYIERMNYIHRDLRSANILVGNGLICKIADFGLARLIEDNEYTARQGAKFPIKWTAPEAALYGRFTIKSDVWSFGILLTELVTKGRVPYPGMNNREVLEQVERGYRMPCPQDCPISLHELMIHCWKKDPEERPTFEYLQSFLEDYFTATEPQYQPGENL
UniProt Q99720, whole entry: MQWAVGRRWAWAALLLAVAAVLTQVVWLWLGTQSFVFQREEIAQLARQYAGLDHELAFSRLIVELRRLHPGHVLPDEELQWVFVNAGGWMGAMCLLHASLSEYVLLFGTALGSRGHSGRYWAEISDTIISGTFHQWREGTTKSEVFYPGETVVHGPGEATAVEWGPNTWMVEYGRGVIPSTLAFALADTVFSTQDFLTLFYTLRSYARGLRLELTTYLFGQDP
UniProt P10635, whole entry: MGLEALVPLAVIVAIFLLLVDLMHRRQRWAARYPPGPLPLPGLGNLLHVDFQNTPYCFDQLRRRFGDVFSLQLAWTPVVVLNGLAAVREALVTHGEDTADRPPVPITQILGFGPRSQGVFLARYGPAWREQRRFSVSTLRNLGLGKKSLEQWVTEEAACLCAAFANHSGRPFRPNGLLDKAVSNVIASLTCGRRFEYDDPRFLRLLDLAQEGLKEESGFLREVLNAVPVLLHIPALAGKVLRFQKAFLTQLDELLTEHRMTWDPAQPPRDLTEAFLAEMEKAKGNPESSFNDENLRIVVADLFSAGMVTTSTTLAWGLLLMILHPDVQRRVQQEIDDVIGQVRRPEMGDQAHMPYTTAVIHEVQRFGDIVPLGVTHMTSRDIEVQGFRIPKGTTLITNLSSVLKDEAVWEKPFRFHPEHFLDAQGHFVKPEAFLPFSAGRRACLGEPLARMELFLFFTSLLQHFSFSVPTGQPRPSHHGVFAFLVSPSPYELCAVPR
UniProt P14780: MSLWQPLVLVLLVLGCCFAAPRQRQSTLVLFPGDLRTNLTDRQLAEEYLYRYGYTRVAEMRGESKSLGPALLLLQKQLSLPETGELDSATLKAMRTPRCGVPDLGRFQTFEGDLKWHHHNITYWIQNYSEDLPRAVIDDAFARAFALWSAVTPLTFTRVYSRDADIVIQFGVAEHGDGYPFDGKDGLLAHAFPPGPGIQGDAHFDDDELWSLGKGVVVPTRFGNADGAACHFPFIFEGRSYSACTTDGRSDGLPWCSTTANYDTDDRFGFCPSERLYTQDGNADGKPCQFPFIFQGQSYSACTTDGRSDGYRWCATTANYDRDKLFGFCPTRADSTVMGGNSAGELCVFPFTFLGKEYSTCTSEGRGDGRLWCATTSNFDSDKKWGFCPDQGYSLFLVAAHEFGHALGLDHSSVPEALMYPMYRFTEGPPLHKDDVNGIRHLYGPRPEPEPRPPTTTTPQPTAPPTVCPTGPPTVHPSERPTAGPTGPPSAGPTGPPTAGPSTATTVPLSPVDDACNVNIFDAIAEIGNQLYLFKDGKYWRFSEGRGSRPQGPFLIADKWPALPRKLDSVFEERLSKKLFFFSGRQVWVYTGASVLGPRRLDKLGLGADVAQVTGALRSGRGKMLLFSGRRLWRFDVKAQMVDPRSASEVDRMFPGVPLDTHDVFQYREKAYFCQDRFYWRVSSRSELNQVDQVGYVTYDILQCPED
UniProt P11712, whole entry: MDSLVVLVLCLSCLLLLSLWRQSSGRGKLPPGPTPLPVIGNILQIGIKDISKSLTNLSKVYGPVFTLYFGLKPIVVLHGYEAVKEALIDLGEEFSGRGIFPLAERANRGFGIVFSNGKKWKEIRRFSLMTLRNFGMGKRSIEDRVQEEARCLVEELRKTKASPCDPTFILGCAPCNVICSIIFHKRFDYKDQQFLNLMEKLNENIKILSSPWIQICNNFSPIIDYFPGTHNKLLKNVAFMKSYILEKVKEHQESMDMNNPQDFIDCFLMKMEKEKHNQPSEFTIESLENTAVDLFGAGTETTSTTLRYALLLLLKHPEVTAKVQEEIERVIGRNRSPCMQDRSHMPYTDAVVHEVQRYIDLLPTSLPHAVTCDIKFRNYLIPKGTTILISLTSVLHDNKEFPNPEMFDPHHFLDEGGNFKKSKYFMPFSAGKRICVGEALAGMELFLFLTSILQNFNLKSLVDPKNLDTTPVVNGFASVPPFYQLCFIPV

For 4 compounds, IC50 and Ki results are on record in ChEMBL document CHEMBL1909046, “DrugMatrix in vitro pharmacology data”.

Series [1] deals with Tyrosine-protein kinase Fyn (Homo sapiens, UniProt P06241). Type of series: cell-based. As to conditions: insect cells.
Series [2] has as its target Sigma non-opioid intracellular receptor 1 (Homo sapiens, UniProt Q99720). Put plainly: DRUGMATRIX: Sigma1 radioligand binding (ligand: [3H] Haloperidol). Type of series: cell membranes, Jurkat, Membrane. The note with it: Not Active = under 50% inhibition at 10 µM.
Series [3] concerns the target cGMP-specific 3',5'-cyclic phosphodiesterase (Homo sapiens, UniProt O76074). Put plainly: DRUGMATRIX: Phosphodiesterase PDE5 enzyme inhibition (substrate: [3H]cGMP + cGMP). Type of series: tissue-based. As to conditions: platelet; Not Active = under 50% inhibition at 10 µM.
The target of series [4] is T1, Type-2 angiotensin II receptor (Homo sapiens, UniProt P50052). Further: in other assays of this panel Not Active means under 50% inhibition at 10 µM.
T1 sequence (P50052 whole entry): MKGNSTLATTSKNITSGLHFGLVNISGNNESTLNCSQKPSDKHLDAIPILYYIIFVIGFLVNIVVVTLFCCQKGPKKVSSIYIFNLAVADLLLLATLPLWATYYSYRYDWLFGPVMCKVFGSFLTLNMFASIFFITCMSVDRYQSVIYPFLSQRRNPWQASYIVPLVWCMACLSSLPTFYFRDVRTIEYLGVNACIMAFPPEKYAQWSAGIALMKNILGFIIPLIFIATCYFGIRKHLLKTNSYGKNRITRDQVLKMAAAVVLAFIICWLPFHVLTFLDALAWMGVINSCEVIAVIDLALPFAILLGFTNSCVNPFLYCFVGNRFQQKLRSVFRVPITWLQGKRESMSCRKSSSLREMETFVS
Type of series: cell-based. The note with it: cho-k1.

The next series has as its target Carbonic anhydrase 2 (Homo sapiens, UniProt P00918). The series is described as follows: DRUGMATRIX: Carbonic Anhydrase II enzyme inhibition (substrate: 4-Nitrophenyl acetate (4-NPA)). The class given is tissue-based. The note with it: erythrocyte; Not Active = under 50% inhibition at 10 µM.
For series [5], the target named is T2, 3-hydroxy-3-methylglutaryl-coenzyme A reductase (Homo sapiens, UniProt P04035).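 Further: enzyme inhibition assay of HMG-CoA reductase using radiolabeled [14C]HMG-CoA as substrate; in other assays of this panel Not Active means under 50% inhibition at 10 µM.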
T2 sequence (P04035 whole entry): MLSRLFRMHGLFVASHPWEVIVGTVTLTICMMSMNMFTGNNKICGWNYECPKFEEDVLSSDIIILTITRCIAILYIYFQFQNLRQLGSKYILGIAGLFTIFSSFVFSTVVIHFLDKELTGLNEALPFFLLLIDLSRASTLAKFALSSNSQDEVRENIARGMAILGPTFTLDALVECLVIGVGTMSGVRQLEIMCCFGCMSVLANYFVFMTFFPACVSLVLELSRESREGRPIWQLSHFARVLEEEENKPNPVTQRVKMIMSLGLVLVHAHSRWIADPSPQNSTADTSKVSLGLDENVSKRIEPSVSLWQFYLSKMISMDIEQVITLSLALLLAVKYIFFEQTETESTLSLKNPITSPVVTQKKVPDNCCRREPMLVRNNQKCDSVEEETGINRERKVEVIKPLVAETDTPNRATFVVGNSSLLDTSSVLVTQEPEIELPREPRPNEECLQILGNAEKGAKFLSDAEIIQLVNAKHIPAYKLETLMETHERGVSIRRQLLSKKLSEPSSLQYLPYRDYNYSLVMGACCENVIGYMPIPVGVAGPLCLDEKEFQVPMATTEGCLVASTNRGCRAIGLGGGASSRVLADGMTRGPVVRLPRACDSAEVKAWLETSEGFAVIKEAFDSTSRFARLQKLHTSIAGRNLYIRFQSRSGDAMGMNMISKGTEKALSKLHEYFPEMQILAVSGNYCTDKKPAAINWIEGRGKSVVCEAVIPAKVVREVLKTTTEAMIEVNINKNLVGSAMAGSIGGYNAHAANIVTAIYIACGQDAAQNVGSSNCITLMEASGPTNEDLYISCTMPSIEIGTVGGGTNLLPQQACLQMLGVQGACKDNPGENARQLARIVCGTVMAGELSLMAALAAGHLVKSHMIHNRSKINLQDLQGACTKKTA
Details: species or system Escherichia coli.

For the next series, the target named is Cytochrome P450 2D6 (Homo sapiens, UniProt P10635). The note with it: bti-tn-5b1-4. Further: in other assays of this panel Not Active means under 50% inhibition at 10 µM.
Series [6] addresses Protein phosphatase 3 catalytic subunit alpha (Homo sapiens, UniProt Q08209). Details: species or system Escherichia coli.
For series [7], the target named is Matrix metalloproteinase-9 (Homo sapiens, UniProt P14780). Type of series: cell-based.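 Further: inhibition of isolated MMP-9 enzyme activity toward a synthetic peptide substrate, from the DrugMatrix protease screening panel; in other assays of this panel Not Active means under 50% inhibition at 10 µM.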
Another series concerns the target Cytochrome P450 2C9 (Homo sapiens, UniProt P11712). As to conditions: bti-tn-5b1-4. Further: in other assays of this panel Not Active means under 50% inhibition at 10 µM.

For the compound `C[S+]([O-])c1ccc(-c2nc(-c3ccc(F)cc3)c(-c3ccncc3)[nH]2)cc1` (stereo not given) [SB-203580], the IC50 result in series [1] was “Not Active”.
With `Clc1ccc(CSC(Cn2ccnc2)c2ccc(Cl)cc2Cl)cc1` (stereo not given) [SULCONAZOLE], the IC50 entry (in [2] (jurkat); in [3]; in [4]; against Carbonic anhydrase 2; in [5]; in [6]) was “Not Active” in each case. In series [7], the concentration for half-maximal inhibition (IC50) entry is reported as “Not Active”. Further, the Ki result (on Cytochrome P450 2D6; in series [1]; on Cytochrome P450 2C9) was “Note: corresponding IC50 reported as Active” in each case.
For `CCN(CC)CCOC(=O)C1(C2CCCCC2)CCCCC1` [DICYCLOMINE], the Ki in series [2] is 2.06 nM; at Cytochrome P450 2D6, “Not Active”; at Cytochrome P450 2C9 it was “Not Active”. The 50% inhibitory concentration (IC50) was 4.89 nM in [2] (read-out: IC50); “Not Active” in series [3]; “Not Active” in [4]; “Not Active” against Carbonic anhydrase 2; “Not Active” in series [5]; “Not Active” at Cytochrome P450 2D6. Further, the IC50 result (in series [6]; in [7]; in series [1]; against Cytochrome P450 2C9) was “Not Active” each time.
Take `CN(C)CCN(Cc1cccs1)c1ccccn1`: the IC50 result (in series [2] (jurkat); in [3]; in [4]; against Carbonic anhydrase 2; in [5]; in [6]) was “Not Active” throughout. For the same compound, the IC50 result (in series [7]; in [1]; on Cytochrome P450 2C9) was “Not Active” throughout. In addition, the Ki entry at Cytochrome P450 2D6 is “Note: corresponding IC50 reported as Active”; on Cytochrome P450 2C9 it was “Not Active”.
